# According to patent US20120302598A1, “IMIDAZOPYRIDINONES” (PFIZER LIMITED, priority 2007, published 2012):
# For at least one compound, name, drawing or mass did not settle the structure.
# Tested on: HCV replicon containing cells
# Assay: Direct response of HCV replicon containing cells to TLR agonists
# Type: cell-based, human
# Conditions: compound applied directly to replicon cells, not via PBL conditioned medium
smiles,measurement,value
CCOCc1nc2c(N)nc3ccccc3c2n1CC(C)(C)O [Resiquimod],direct response of HCV replicon containing cells to the TLR agonist,do not respond directly
